Source: patent US20150140001A1 (Scripps Research, published 2015)
These are yes or no findings as the source states them, for the method shown. Some entries that bind do so weakly or less than the wild type. For part of these data: Tags and fused reporters may be left off the sequences shown.

Chains of the proteins cited; added tags and fusions are not shown. Lines headed by an entry give the natural chain unless they say otherwise; changes in a name come on top.
UniProt Q86T13: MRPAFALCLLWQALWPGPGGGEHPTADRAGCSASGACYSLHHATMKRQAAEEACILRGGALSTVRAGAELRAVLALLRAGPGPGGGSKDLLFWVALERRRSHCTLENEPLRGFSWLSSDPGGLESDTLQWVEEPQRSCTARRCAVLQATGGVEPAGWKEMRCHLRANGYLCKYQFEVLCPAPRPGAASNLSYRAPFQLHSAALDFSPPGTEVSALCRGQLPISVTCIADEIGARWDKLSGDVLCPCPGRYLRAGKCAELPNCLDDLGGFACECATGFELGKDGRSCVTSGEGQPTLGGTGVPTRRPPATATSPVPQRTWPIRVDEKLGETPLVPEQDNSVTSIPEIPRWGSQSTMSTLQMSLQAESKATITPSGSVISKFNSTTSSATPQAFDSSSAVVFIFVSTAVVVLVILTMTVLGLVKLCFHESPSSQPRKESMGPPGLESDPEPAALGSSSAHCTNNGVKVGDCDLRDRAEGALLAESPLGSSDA
UniProt Q8VCP9: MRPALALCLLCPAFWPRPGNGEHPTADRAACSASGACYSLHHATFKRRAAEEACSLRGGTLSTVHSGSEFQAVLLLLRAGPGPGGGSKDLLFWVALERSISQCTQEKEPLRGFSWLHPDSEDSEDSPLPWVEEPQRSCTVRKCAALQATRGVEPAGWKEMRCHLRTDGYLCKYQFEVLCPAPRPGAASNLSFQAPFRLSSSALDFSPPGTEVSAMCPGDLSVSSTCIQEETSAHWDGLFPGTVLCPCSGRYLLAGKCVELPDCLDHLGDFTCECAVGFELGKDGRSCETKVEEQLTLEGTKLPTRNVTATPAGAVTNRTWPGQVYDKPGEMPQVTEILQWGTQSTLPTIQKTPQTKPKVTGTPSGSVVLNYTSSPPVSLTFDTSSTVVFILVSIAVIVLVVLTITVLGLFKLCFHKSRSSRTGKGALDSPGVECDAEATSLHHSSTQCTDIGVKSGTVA

Experiments:
[1] = biological target: recombinant human clec14a CTLD Fc fusion protein (hCTLD-Fc) (human) (UniProt Q86T13); test: ELISA, coated hCTLD-Fc (25 nM), 67 nM IgG
[2] = biological target: recombinant mouse clec14a CTLD Fc fusion protein (mCTLD-Fc) (mouse; human) (UniProt Q8VCP9); test: ELISA, coated mCTLD-Fc (25 nM), 67 nM IgG
[3] = biological target: recombinant human clec14a CTLD Fc fusion protein (hCTLD-Fc) (human) (UniProt Q86T13); test: phage enzyme immunoassay (phage ELISA) on hCTLD-Fc
[4] = biological target: recombinant mouse clec14a CTLD Fc fusion protein (mCTLD-Fc) (mouse; human) (UniProt Q8VCP9); test: phage enzyme immunoassay (phage ELISA) on mCTLD-Fc
[5] = biological target: T1, fusion protein comprising an amino acid fragment from 122nd amino acid to 142nd amino acid in hCTLD (human); test: epitope mapping ELISA, coated fragment-Fc 10 µg/ml, IgG 10 µg/ml
T1 sequence: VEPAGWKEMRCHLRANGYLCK

B1: clec14a-CTLD IgG clone 4 (antibody, V domains shown)
VH: EVQLLESGGGLVQPGGSLRLSCAASGFTFSGYYMSWVRQAPGKGLEWVSVIYSGDGSTYYADSVKGRFTISRDNSKNTLYLQMNSLRAEDTAVYYCARGLNSSSALPFDYWGQGTLVTVSS
VL: QSVLTQPPSASGTPGQRVTISCSGSSSNIGSNAVNWYQQLPGTAPKLLIYADSNRPSGVPDRFSGSKSGTSASLAISGLRSEDEADYYCGSWDYSLSAYVFGGGTKLTVL
With B1 the binding [1] was “binds” and the binding [2] was “binds”.

B2: scFv clone 4 (phage-displayed) (scFv, V domains shown)
VH: EVQLLESGGGLVQPGGSLRLSCAASGFTFSGYYMSWVRQAPGKGLEWVSVIYSGDGSTYYADSVKGRFTISRDNSKNTLYLQMNSLRAEDTAVYYCARGLNSSSALPFDYWGQGTLVTVSS
VL: QSVLTQPPSASGTPGQRVTISCSGSSSNIGSNAVNWYQQLPGTAPKLLIYADSNRPSGVPDRFSGSKSGTSASLAISGLRSEDEADYYCGSWDYSLSAYVFGGGTKLTVL
For B2, the binding [3] was “binds” and the binding [4] was “binds”.

B3: clec14a-CTLD IgG clone 2 (antibody, V domains shown)
VH: EVQLLESGGGLVQPGGSLRLSCAASGFTFSSYDMSWVRQAPGKGLEWVSVISPDSSSTYYADSVKGRFTISRDNSKNTLHLQMNSLRAEDTAVYYCARHTGWQSRPHTYYDYGMDVWGQGTLVTVSS
VL: QSVLTQPPSASGTPGQRVTISCSGSSSNIGNNAVTWYQQLPGTAPKLLIYSDNHRPSGVPDRFSGSKSGTSASLAISGLRSEDEADYYCGTWDASLSGYVFGGGTKLTVL
notes: Lambda light chain
For B3, the binding [5] was “binds”.

B4: clec14a-CTLD IgG clone 1 (antibody, V domains shown)
VH: EVQLLESGGGLVQPGGSLRLSCAASGFTFSGYDMSWVRQAPGKGLEWVSGIYPDGGNTYYADSVKGRFTISRDNSKNTLYLQMNSLRAEDTAVYYCARGATWWVLGPFDYWGQGTLVTVSS
VL: QSVLTQPPSASGTPGQRVTISCTGSSSNIGNNSVTWYQQLPGTAPKLLIYADSHRPSGVPDRFSGSKSGTSASLAISGLRSEDEADYYCGAWDDSLSGYVFGGGTKLTVL
notes: scFv converted to IgG; Lambda light chain, detected with anti-human lambda antibody
For B4, the binding [5] was “binds”.
